Data set [1] deals with ParB (Spo0J) (Bacillus subtilis 168) (UniProt P26497). Kind of data set: competition with a labelled probe. The following applies: 5 uM reverses condensation of parS MT DNA, larger amount than parS needed to prevent it; 50 mM Hepes-KOH pH 7.5, 100 mM KCl, 2.5 mM MgCl2, 0.1 mg/ml BSA, 1 mM DTT, 20 nM DNA; EMSA also 2.5% Ficoll, room temperature 30 min then ice 5 min, gel at 4 C; recombinant protein; residues 1-282; protein details: untagged; label: 5'-Hex on forward strand (SEC-MALS). In general terms: Mobility shift assays separate free from complexed probe on a gel.

By UniProt entry, the sequences of proteins in these tests, tags left out. Where a name states a change or a piece, a line headed by the entry shows the natural chain unless it says otherwise.
UniProt P26497: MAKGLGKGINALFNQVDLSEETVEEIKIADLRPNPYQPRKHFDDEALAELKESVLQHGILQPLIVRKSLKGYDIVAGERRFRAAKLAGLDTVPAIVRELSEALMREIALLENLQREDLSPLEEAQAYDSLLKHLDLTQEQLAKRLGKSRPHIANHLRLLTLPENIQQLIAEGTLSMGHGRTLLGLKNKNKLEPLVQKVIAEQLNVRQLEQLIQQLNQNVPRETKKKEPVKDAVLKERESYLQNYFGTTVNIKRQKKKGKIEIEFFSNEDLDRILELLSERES

Data set [2] shares this target. Kind of data set: SEC-MALS. The following applies: 50 mM Hepes-KOH pH 7.5, 100 mM KCl, 2.5 mM MgCl2, 0.1 mg/ml BSA, 1 mM DTT, 20 nM DNA, recombinant protein, residues 1-282, protein details: untagged.
For data set [3] the target is unchanged. Kind of data set: native MS. The following applies: no Mg2+, 300 mM ammonium acetate; 50 mM Hepes-KOH pH 7.5, 100 mM KCl, 2.5 mM MgCl2, 0.1 mg/ml BSA, 1 mM DTT, 20 nM DNA; recombinant protein; residues 1-282; protein details: untagged; label: 5'-Hex on forward strand.

For some of these results: Negatives hold for the conditions tested. For some of these results: For at least one entry, the source does not settle the construct or the ends of the probe. For some of these results: Weaker means in comparison with the reference protein, sequence or condition of that experiment.

“CAGCAGTTGAATCAGAACGTGCCCAGGGAGACAAAGAAAAAAGAACCTGT (double strand) [50-bp non-specific]”: the binding result in data set [1] is listed as “binds more weakly”; in data set [2] (label: 5'-Hex on forward strand (SEC-MALS)) it was “binds”. Take “AGAACGTGCCCAGGGAGACAAAGA (double strand) [24-bp non-specific]”: in data set [2] (9 uM ParB2, 10 uM DNA, label: 5'-Hex on forward strand), the binding result is given as “no binding”. Regarding “TGTTCGCCAACTTGAGCAGCTGATTCAGCAGTTGAATCAGAACGTGCCCAGGGAGACAAAGAAAAAAGAACCTGTGAAAGATGCGGTTCTAAAAGAACGG (double strand) [100-bp non-specific]”, the binding result in data set [3] is “no binding”.
